Results on 29 targets are retold here after the supplement of paper PMC10849652.

Protein sequences, listed by entry. Tags and fused reporters are not part of them. Lines headed by an entry give the natural chain unless they say otherwise; changes in a name come on top.
UniProt Q8NBK3: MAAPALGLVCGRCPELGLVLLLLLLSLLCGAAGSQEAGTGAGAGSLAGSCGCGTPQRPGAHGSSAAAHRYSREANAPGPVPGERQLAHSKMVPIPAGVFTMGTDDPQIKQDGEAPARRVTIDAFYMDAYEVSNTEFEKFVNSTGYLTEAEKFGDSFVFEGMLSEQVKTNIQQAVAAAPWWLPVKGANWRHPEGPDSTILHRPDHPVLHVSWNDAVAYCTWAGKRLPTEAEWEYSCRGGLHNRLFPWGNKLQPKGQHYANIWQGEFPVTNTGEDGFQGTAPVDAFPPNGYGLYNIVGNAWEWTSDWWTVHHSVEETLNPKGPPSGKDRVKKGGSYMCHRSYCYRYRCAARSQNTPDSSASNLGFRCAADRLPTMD
UniProt Q1ZZU3: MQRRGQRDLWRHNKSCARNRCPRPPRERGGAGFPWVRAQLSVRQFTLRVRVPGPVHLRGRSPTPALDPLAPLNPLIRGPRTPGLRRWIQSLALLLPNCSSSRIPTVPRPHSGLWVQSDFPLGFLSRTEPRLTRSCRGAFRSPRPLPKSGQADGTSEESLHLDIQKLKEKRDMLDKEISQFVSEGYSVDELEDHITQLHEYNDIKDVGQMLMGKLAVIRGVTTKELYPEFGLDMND
UniProt O94864: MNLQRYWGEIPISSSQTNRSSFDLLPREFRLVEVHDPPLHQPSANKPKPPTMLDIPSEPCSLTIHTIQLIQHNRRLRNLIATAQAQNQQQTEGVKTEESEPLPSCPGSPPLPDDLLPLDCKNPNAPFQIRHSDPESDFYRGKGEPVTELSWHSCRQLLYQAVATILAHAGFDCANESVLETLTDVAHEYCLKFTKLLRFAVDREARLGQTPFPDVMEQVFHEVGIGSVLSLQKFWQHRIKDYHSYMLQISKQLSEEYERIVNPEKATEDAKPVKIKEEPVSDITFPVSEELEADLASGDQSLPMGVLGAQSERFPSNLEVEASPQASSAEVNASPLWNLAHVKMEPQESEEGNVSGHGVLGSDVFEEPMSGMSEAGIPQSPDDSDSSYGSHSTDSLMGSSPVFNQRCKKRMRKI
UniProt Q96C24: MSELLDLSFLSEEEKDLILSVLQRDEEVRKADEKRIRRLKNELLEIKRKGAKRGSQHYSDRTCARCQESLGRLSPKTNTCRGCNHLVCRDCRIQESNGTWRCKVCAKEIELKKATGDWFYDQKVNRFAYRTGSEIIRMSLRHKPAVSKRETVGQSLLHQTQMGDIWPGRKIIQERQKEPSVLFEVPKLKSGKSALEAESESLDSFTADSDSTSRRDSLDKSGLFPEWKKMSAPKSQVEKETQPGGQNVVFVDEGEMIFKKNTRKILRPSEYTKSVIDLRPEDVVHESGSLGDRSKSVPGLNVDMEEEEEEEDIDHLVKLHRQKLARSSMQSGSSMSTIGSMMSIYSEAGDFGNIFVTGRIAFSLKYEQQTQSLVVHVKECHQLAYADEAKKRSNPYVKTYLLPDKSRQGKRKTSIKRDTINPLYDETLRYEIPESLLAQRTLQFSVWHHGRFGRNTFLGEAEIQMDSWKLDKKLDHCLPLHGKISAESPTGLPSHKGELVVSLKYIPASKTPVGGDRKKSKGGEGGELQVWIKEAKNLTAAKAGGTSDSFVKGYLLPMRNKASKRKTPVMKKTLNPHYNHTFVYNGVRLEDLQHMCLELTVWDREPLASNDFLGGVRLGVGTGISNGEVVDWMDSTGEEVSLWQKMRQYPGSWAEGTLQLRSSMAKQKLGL
UniProt P49888: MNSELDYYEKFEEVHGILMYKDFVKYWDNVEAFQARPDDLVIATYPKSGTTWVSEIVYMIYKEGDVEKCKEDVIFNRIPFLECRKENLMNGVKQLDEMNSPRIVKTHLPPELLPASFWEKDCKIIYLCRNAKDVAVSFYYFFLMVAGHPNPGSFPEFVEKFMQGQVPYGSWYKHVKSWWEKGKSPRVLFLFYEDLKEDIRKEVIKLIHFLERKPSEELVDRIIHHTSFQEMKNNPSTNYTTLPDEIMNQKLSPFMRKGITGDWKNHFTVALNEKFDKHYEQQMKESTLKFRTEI
UniProt Q13188: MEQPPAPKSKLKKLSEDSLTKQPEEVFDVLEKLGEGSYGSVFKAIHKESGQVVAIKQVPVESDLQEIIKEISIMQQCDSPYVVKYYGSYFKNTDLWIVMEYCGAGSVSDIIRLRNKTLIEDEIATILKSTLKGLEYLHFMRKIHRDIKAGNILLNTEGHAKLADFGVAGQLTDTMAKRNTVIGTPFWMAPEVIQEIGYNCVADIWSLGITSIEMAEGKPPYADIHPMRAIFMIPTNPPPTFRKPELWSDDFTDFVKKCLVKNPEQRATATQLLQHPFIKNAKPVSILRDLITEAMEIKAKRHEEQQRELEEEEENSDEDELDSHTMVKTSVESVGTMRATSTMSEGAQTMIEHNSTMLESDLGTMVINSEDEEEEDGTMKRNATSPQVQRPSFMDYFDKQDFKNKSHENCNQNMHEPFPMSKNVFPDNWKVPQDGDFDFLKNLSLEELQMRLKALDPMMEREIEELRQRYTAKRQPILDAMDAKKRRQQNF
UniProt Q9NRP7: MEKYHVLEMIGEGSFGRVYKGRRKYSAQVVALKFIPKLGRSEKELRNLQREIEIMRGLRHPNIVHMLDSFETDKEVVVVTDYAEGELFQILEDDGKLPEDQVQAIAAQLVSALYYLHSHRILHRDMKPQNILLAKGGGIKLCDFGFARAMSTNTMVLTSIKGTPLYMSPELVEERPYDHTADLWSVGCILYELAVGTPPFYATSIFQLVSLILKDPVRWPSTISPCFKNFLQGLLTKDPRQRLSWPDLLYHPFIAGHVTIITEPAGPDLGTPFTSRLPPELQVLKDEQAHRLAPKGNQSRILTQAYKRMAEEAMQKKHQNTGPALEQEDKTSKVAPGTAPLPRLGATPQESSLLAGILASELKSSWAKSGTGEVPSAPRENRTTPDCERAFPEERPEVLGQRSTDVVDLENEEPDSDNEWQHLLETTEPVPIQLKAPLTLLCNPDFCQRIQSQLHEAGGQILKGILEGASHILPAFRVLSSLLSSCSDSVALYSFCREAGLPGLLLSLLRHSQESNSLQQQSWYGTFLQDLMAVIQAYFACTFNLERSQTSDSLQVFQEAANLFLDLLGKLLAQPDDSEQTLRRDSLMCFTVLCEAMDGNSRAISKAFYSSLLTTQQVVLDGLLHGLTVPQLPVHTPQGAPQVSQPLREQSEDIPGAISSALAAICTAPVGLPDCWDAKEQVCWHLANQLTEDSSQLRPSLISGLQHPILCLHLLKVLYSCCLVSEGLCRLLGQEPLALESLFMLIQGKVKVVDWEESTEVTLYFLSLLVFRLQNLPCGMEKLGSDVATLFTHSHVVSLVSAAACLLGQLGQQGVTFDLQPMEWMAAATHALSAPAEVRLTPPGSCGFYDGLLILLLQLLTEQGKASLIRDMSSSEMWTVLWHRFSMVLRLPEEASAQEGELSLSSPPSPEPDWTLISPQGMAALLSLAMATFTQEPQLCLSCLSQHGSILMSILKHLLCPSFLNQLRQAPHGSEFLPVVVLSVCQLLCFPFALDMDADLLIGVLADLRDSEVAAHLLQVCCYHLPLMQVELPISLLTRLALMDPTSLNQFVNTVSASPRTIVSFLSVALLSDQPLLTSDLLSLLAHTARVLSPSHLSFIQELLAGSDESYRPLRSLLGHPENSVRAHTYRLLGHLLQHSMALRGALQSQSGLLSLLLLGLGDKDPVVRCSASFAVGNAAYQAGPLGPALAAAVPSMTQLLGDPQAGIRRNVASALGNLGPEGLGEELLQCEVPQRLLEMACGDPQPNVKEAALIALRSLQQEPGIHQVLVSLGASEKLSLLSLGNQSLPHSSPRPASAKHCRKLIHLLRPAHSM
UniProt Q9H7L9: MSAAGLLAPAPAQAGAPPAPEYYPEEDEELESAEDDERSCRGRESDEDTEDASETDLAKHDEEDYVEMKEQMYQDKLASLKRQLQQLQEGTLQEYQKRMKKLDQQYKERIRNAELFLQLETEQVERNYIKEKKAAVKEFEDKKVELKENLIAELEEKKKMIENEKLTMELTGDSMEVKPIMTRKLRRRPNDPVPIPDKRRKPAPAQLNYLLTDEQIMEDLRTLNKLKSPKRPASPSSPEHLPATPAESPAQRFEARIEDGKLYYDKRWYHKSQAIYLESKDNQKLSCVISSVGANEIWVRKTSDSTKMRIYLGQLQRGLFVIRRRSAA
UniProt Q9H6P5: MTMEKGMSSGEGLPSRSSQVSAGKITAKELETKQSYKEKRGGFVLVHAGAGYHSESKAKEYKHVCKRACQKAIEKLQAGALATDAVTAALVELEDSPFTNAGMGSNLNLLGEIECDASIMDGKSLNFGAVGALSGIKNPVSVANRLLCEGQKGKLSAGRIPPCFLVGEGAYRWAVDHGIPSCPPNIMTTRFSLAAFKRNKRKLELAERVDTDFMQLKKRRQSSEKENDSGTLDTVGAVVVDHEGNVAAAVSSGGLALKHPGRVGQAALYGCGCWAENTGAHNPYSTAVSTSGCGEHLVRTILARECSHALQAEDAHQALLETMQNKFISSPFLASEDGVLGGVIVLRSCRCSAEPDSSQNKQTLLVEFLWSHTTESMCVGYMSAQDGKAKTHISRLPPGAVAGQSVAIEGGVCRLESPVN
UniProt Q8IX01: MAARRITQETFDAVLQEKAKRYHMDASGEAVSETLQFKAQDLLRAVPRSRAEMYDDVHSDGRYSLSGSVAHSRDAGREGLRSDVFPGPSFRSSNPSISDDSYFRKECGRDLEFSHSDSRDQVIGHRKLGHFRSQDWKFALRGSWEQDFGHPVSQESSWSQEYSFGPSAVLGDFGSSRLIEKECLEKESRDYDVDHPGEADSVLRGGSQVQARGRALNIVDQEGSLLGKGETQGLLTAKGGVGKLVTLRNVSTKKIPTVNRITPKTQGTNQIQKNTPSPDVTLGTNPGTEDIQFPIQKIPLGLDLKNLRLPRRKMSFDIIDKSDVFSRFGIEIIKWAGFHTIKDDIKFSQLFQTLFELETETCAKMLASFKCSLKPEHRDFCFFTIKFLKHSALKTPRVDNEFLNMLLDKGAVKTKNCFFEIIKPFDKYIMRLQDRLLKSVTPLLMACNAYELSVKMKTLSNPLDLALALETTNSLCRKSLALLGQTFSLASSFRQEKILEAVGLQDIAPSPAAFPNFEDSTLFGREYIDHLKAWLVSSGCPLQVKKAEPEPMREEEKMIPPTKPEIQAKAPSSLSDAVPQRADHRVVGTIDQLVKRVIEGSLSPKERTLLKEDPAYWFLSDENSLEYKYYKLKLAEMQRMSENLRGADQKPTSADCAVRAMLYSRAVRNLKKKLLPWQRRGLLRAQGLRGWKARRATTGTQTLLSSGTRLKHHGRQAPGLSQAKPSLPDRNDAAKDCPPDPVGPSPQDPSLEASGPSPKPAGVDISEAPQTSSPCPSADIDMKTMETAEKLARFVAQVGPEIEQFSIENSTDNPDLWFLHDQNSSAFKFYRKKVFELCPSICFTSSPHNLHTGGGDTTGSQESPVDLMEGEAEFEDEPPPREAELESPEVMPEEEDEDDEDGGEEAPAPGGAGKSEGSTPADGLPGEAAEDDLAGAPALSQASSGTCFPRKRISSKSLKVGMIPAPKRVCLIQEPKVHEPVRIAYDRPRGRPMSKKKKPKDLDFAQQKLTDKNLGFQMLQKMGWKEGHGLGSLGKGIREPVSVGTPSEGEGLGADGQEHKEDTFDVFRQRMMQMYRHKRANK
UniProt Q9UI15: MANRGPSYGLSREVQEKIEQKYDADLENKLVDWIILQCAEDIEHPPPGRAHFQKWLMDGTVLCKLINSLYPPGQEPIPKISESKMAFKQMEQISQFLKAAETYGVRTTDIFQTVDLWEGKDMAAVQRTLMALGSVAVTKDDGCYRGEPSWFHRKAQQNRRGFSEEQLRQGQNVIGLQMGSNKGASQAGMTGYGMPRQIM
UniProt Q15543, whole entry, looked up: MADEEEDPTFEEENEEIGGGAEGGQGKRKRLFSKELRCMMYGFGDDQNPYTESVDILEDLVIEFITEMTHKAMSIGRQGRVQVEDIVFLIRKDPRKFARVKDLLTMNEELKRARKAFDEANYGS
UniProt Q6ZWJ1: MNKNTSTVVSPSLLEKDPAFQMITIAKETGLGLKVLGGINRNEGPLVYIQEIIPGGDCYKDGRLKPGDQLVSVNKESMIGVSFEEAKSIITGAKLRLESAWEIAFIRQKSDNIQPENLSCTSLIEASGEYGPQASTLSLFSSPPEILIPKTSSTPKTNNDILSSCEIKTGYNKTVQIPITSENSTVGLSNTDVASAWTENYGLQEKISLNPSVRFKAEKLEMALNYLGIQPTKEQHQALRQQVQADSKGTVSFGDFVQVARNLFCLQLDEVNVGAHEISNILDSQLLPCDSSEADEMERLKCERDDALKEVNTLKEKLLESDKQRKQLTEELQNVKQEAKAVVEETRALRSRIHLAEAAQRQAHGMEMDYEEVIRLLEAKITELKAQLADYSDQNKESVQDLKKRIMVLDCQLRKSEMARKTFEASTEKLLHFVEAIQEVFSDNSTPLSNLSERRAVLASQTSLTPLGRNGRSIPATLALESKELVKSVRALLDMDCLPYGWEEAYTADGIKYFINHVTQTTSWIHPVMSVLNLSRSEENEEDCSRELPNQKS

Some of the results follow.

Compound in the first test: CC[C@@H]1C(=O)N(C)c2cnc(Nc3ccc(C(=O)N[C@H]4CC[C@H](N5CCN(CC6CC6)CC5)CC4)cc3OC)nc2N1C(C)C [volasertib]
Nature of the test: log2 fold change, soluble protein after heating vs DMSO (PISA); higher = thermal stabilisation; K562 cells, 10 uM, 30 min; active = over 0.2 and 3.5 SD of the protein, either way, in both replicates (recomputed). Put shortly:
(§1)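 K562 cells (2×10^6 cells/mL) were treated with 10 μM compound for 30 min, and aliquots were heated for 3 min over 48°C-58°C. Pooled aliquots were extracted in PBS with 0.5% NP-40 at 4°C, and the supernatant after 21,000xg for 90 min was measured by TMTpro 16plex LC-MS/MS with channel sums equalised. Reported thermal stability, relative to control samples and from duplicates, is a log2 fold change.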
Take SYK (UniProt P43405): the log2 fold change is inactive: 0.196.

As for SUMF1 isoform 3 (UniProt Q8NBK3), the log2 fold change is inactive: -0.017.

Turning to TBC1D10A (UniProt Q9BXI6), the log2 fold change is inactive: 0.132.

In the case of STK40 isoform 4 (UniProt Q8N2I9), the log2 fold change is inactive: 0.12.

Consider STS (UniProt P08842), for which the log2 fold change is inactive: 0.192.

Regarding TAF9B (UniProt Q9HBM6), the log2 fold change is inactive: 0.084.

As to SWI5 (UniProt Q1ZZU3), the log2 fold change is inactive: -0.027.

Compound in the next test: CC[C@H](C)N1C=C(C2=C(C=C(C=C21)C3=CN=C(C=C3)N4CCNCC4)C(=O)NCC5=C(C=C(NC5=O)C)C)C
Described as above. The method in brief: as §1
As for SUPT7L (UniProt O94864), the log2 fold change is inactive: 0.

For STRN3 isoform 2 (UniProt Q13033), the log2 fold change was inactive: -0.164.

For STK35 (UniProt Q8TDR2), the log2 fold change was inactive: -0.095.

Regarding SYTL4 (UniProt Q96C24), the log2 fold change is inactive: 0.088.

Regarding SUZ12 (UniProt Q15022), the log2 fold change is inactive: 0.004.

Turning to STON2 isoform 3 (UniProt Q8WXE9), the log2 fold change is inactive: -0.061.

With SULT1E1 (UniProt P49888), the log2 fold change was inactive: 0.065.

Regarding STK38L (UniProt Q9Y2H1), the log2 fold change is inactive: -0.011.

Regarding STK3 isoform 2 (UniProt Q13188), the log2 fold change is inactive: 0.02.

For the target STK36 (UniProt Q9NRP7), the log2 fold change was inactive: -0.135.

On to SUDS3 (UniProt Q9H7L9), for which the log2 fold change was inactive: -0.056.

As for TAF6L (UniProt Q9Y6J9), the log2 fold change was inactive: 0.118.

For TASP1 (UniProt Q9H6P5), the log2 fold change is inactive: -0.016.

Regarding SUMF1 isoform 3 (UniProt Q8NBK3), the log2 fold change was inactive: 0.106.

SYNE1 (UniProt Q8NF91): the log2 fold change is inactive: -0.048.

Turning to SYNJ2 (UniProt O15056), the log2 fold change is inactive: 0.06.

Regarding SWI5 (UniProt Q1ZZU3), the log2 fold change was inactive: 0.131.

With SUGP2 (UniProt Q8IX01), the log2 fold change is inactive: -0.123.

Compound in a further test: CC[C@H](C)[C@@H](C(=O)N[C@@H]([C@@H](C)O)C(=O)N[C@@H](CC(C)C)C(=O)[C@]1(CO1)C)NC(=O)[C@H]([C@@H](C)CC)N(C)C(=O)C [epoxomicin]
The description is as above. Put shortly:
as §1
Turning to STRN3 isoform 2 (UniProt Q13033), the log2 fold change is inactive: -0.072.

On to TAGLN3 (UniProt Q9UI15), for which the log2 fold change was inactive: -0.113.

For the target TAF4 (UniProt O00268), the log2 fold change was inactive: -0.023.

With SYTL4 (UniProt Q96C24), the log2 fold change was inactive: 0.082.

Take TAF13 (UniProt Q15543): the log2 fold change is inactive: 0.047.

Consider STXBP4 (UniProt Q6ZWJ1), for which the log2 fold change was inactive: -0.166.

Regarding STK38L (UniProt Q9Y2H1), the log2 fold change is inactive: 0.071.

Take STK3 isoform 2 (UniProt Q13188): the log2 fold change was inactive: -0.002.

With TAB2 (UniProt Q9NYJ8), the log2 fold change is inactive: 0.044.

Turning to SUDS3 (UniProt Q9H7L9), the log2 fold change was inactive: -0.174.

For the target TAF5 (UniProt Q15542), the log2 fold change is inactive: 0.055.

Regarding SYK (UniProt P43405), the log2 fold change was inactive: 0.022.

Consider TASP1 (UniProt Q9H6P5), for which the log2 fold change is inactive: -0.186.

For SUMF1 isoform 3 (UniProt Q8NBK3), the log2 fold change is inactive: 0.017.

As for TBC1D10A (UniProt Q9BXI6), the log2 fold change is inactive: -0.01.

Regarding TAF9B (UniProt Q9HBM6), the log2 fold change is inactive: 0.041.

With SYNE1 (UniProt Q8NF91), the log2 fold change is inactive: 0.047.

SYNJ2 (UniProt O15056): the log2 fold change was inactive: -0.05.

As for SWI5 (UniProt Q1ZZU3), the log2 fold change is inactive: 0.115.

On to SUGP2 (UniProt Q8IX01), for which the log2 fold change is inactive: -0.108.
